Results are given in words; binding and its absence hold for the method and conditions named. A result given as binding can be weak or reduced; the word gives no strength.
Legend:
[1] = target: NKG2D-His (UniProt P26718); assay: ELISA, antibody-captured shed MICA002, NKG2D-His detected with anti-His-HRP, FIG. 10B
[2] = target: NKG2D-His (UniProt P26718); assay: ELISA, FIG. 10B
[3] = target: NKG2D-His (UniProt P26718); assay: ELISA, antibody-captured shed MICA004, NKG2D-His detected with anti-His-HRP, FIG. 10C
[4] = target: NKG2D-His (UniProt P26718); assay: ELISA, FIG. 10C

Sequences of proteins named here, by UniProt entry; tags and fusion partners are left off. A change or cut given only in a name is not applied to a line headed by its entry. Residues count along the entry.
UniProt P26718, residues 78-216: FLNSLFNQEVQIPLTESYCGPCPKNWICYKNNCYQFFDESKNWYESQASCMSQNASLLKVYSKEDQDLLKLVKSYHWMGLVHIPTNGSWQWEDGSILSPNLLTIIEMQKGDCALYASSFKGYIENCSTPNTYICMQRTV
UniProt Q29983: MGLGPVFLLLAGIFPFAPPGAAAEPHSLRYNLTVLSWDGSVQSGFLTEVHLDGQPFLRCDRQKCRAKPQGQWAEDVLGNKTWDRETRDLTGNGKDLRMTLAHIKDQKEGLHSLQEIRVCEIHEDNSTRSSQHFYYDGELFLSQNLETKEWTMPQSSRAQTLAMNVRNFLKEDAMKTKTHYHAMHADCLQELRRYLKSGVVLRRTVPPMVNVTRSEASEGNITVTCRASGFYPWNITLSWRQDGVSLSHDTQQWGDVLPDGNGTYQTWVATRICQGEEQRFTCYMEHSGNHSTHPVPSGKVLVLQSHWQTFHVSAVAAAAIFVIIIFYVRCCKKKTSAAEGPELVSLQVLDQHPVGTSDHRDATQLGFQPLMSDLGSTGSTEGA

Row | Substance | binding [1] | binding [2] | binding [3] | binding [4]
1 | shed MICA002 polypeptide (from UniProt Q29983) (ligand) | binds | binds |  | 
2 | shed MICA004 polypeptide (from UniProt Q29983) (ligand) |  |  | binds | binds

From US20250368742A1
